Assay results reported in publication PMC12607630.
No constants are given. Whether binding was seen depends on the method and setting. Binding calls can cover weak binding; strength is not graded here. Where a sequence is shown, tags or fusion partners need not be part of it.

The chains behind the UniProt entries cited, without tags or fusion partners. Where a name states a change or a piece, a line headed by the entry shows the natural chain unless it says otherwise.
UniProt P0A9A6: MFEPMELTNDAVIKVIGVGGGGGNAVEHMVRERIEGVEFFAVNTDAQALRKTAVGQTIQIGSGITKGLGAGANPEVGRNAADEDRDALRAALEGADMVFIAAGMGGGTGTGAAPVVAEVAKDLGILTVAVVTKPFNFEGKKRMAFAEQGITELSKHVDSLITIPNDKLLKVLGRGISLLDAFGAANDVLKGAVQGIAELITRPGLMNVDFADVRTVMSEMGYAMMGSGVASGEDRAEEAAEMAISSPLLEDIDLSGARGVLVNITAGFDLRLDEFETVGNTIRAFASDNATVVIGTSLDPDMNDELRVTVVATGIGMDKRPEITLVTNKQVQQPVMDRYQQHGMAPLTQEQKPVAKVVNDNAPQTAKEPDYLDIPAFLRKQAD

Molecular target: FtsZ-T25 fusion (bacterial two-hybrid) (Escherichia coli) (UniProt P0A9A6)
Assay: two-hybrid; bacterial two-hybrid in strain LYA1 (BTH101, ftsA^R286W); LB plates with antibiotics, 40 µg/mL X-gal and IPTG, 30°C, about 18 hours

binding	Binder
binds	ZapA (bacterial two-hybrid fusion) (protein, UniProt P0ADS2 1-109) MSAQPVDIQIFGRSLRVNCPPDQRDALNQAADDLNQRLQDLKERTRVTNTEQLVFIAALNISYELAQEKAKTRDYAASMEQRIRMLQQTIEQALLEQGRITEKTNQNFE
binds	FtsA (bacterial two-hybrid fusion) (protein, UniProt P0ABH0 1-420) MIKATDRKLVVGLEIGTAKVAALVGEVLPDGMVNIIGVGSCPSRGMDKGGVNDLESVVKCVQRAIDQAELMADCQISSVYLALSGKHISCQNEIGMVPISEEEVTQEDVENVVHTAKSVRVRDEHRVLHVIPQEYAIDYQEGIKNPVGLSGVRMQAKVHLITCHNDMAKNIVKAVERCGLKVDQLIFAGLASSYSVLTEDERELGVCVVDIGGGTMDIAVYTGGALRHTKVIPYAGNVVTSDIAYAFGTPPSDAEAIKVRHGCALGSIVGKDESVEVPSVGGRPPRSLQRQTLAEVIEPRYTELLNLVNEEILQLQEKLRQQGVKHHLAAGIVLTGGAAQIEGLAACAQRVFHTQVRIGAPLNITGLTDYAQEPYYSTAVGLLHYGKESHLNGEAEVEKRVTASVGSWIKRLNSWLRKEF
